The list does not hold the whole screen: it is rich in T/C values a quarter to a half above the control, in often repeated tests (any T/C) and in doses without a T/C. Other doses and runs of a compound stand elsewhere. T/C is the treated group as % of the vehicle group. Some doses have a count of surviving animals in place of a T/C: the source holds a T/C of zero for them, seemingly a mark for toxic or unscored doses. Some doses without a T/C left all or most animals alive at the check, yet need not have been tolerated: the source hardly ever lists a survival T/C far under the control, and the zero likely stands for such cases as well. Counts of survivors are from the toxicity check (mostly the fifth day) where no day follows; animals may have died later. Schedules are NCI's codes, read here as Q, the interval in days (D) or hours (H), X, the number of doses. For survival time, this PubChem deposit counts one and a half times the control or more as active, and values a quarter to a half above the control carry no call in these data; other NCI protocols may use other cut-offs.
Tested on: L1210 leukemia ip in BDF1 mice, survival T/C
Assay: NCI In Vivo Anticancer Drug Screen. Data for tumor model L1210 Leukemia (intraperitoneal) in B6D2F1 (BDF1) mice
Conditions: T/C endpoint: mean survival time, higher T/C = longer survival
[1] = dose: 400.0 mg/kg/injection, schedule: Q04DX003 (ip), vehicle: saline with Tween-80
[2] = dose: 400.0 mg/kg/injection, schedule: Q01DX001 (ip), vehicle: saline
[3] = dose: 200.0 mg/kg/injection, schedule: Q01DX009 (ip), vehicle: Klucel (hydroxypropylcellulose) (HPC)
[4] = dose: 100.0 mg/kg/injection, schedule: Q01DX001 (ip), vehicle: carboxymethylcellulose (CMC)
[5] = dose: 200.0 mg/kg/injection, schedule: Q01DX001 (ip), vehicle: carboxymethylcellulose (CMC)
[6] = dose: 400.0 mg/kg/injection, schedule: Q01DX001 (ip), vehicle: carboxymethylcellulose (CMC)
[7] = dose: 400.0 mg/kg/injection, schedule: Q01DX009 (ip), vehicle: saline

Question: Which survivor count (dose: 200.0 mg/kg/injection, schedule: Q01DX001 (ip), vehicle: saline) does the source give for `CCCCCCCC(=O)N(CCN(N=O)C(=O)CCCCCCC)N=O` here?
Answer: 6 of 6

Question: How did the survivor count [1] turn out when `OC(c1cc2c3c(c1)CCCN3CCC2)(C(F)(F)F)C(F)(F)F` was run?
Answer: 0 of 6

Question: `CC(=O)Nc1ccc(Cc2[nH]c(=O)[nH]c(=O)c2Br)cc1` was tested. Which survivor count (dose: 400.0 mg/kg/injection, schedule: Q01DX001 (ip), vehicle: Klucel (hydroxypropylcellulose) (HPC)) did it give?
Answer: 3 of 3

Question: What does the source list for `CN(C)CCOC(=O)c1cc(CCBr)cc(CCBr)c1`?
Answer: survivor count (dose: 20.0 mg/kg/injection, schedule: Q01DX009 (ip), vehicle: Klucel (hydroxypropylcellulose) (HPC)): 1 of 6; survivor count (dose: 40.0 mg/kg/injection, schedule: Q01DX009 (ip), vehicle: Klucel (hydroxypropylcellulose) (HPC)): 0 of 6; survivor count (dose: 87.5 mg/kg/injection, schedule: Q01DX009 (ip), vehicle: saline): 0 of 6; survivor count (dose: 175.0 mg/kg/injection, schedule: Q01DX009 (ip), vehicle: saline): 0 of 6; survivor count (dose: 350.0 mg/kg/injection, schedule: Q01DX009 (ip), vehicle: saline): 0 of 6

Question: With `Oc1c(Cl)cc(Cl)c(Cl)c1Cc1c(O)c(Cl)cc(Cl)c1Cl` as the molecule, how does the survivor count (dose: 100.0 mg/kg/injection, schedule: Q04DX003 (ip), vehicle: saline with Tween-80) read?
Answer: 0 of 6

Question: What about the survivor count (dose: 200.0 mg/kg/injection, schedule: Q04DX003 (ip), vehicle: saline with Tween-80) of the same molecule?
Answer: 0 of 6

Question: And the survivor count [1]?
Answer: 0 of 6

Question: `O=NN(CCF)C(=O)NC1CCC(NC(=O)N(CCF)N=O)CC1` (stereo unspecified) was tested. Which T/C (dose: 25.0 mg/kg/injection, schedule: Q01DX001 (ip), vehicle: other) did it give?
Answer: 128 % of control

Question: `Nc1ccc(OCC(=O)Nc2ccc(S(=O)(=O)F)cc2)cc1` was tested. Which survivor count [2] did it give?
Answer: 3 of 6

Question: What does the source list for `COc1ccc([N+](=O)[O-])cc1NC(=O)Nc1ccccc1C(F)(F)F`?
Answer: survivor count [3]: 6 of 6; survivor count (dose: 400.0 mg/kg/injection, schedule: Q01DX009 (ip), vehicle: Klucel (hydroxypropylcellulose) (HPC)): 6 of 6

Question: How did the survivor count [2] turn out when `O=C(O)c1cc([N+](=O)[O-])cs1` was run?
Answer: 2 of 4

Question: How did the survivor count (dose: 25.0 mg/kg/injection, schedule: Q04DX003 (ip), vehicle: other) turn out when `CCCCCCCCCCCCCC(=O)[O][Sn]([CH2]CCC)([CH2]CCC)[O]C(=O)CCCCCCCCCCCCC` was run?
Answer: 1 of 6

Question: What about the survivor count (dose: 100.0 mg/kg/injection, schedule: Q04DX003 (ip), vehicle: other) of the same molecule?
Answer: 2 of 6

Question: And the survivor count (dose: 200.0 mg/kg/injection, schedule: Q04DX003 (ip), vehicle: other)?
Answer: 0 of 6

Question: What about the survivor count (dose: 400.0 mg/kg/injection, schedule: Q04DX003 (ip), vehicle: other) of the same molecule?
Answer: 1 of 6

Question: `O=C(Cc1ccc(CC(=O)NO)cc1)NO` was tested. Which survivor count (dose: 300.0 mg/kg/injection, schedule: Q01DX001 (ip), vehicle: saline) did it give?
Answer: 3 of 6

Question: How did the T/C (dose: 177.0 mg/kg/injection, schedule: Q01DX009 (ip), vehicle: carboxymethylcellulose (CMC)) turn out when `Cc1ccc(NC(=O)N(CCCl)N=O)cc1NC(=O)N(CCCl)N=O` was run?
Answer: 144 % of control

Question: How did the survivor count (dose: 32.0 mg/kg/injection, schedule: Q01DX009 (ip), vehicle: acetone) turn out when `COC1=C(N)C(=O)c2ncccc2C1=O` was run?
Answer: 0 of 6

Question: Which survivor count [4] does the source give for `CC1CN1S(=O)(=O)N1CC1C` (stereo unspecified) here?
Answer: 1 of 4

Question: What about the survivor count [5] of the same molecule?
Answer: 0 of 4

Question: And the survivor count [6]?
Answer: 2 of 4

Question: With `O=C(O)C(=O)/C=C/c1cccc([N+](=O)[O-])c1` as the molecule, how does the survivor count [7] read?
Answer: 0 of 6

Question: `COc1ccc(NC(=O)/C=N/O)c(Cl)c1` was tested. Which survivor count [4] did it give?
Answer: 6 of 6

Question: How did the survivor count (dose: 200.0 mg/kg/injection, schedule: Q01DX009 (ip), vehicle: saline) turn out when `COC(=O)C(Br)CBr` (stereo unspecified) was run?
Answer: 2 of 6

Question: What about the survivor count [7] of the same molecule?
Answer: 0 of 6

Question: What about the survivor count (dose: 400.0 mg/kg/injection, schedule: Q04DX003 (ip), vehicle: saline) of the same molecule?
Answer: 3 of 6

Question: Which survivor count (dose: 400.0 mg/kg/injection, schedule: Q04DX002 (ip), vehicle: saline) does the source give for `CCCCCCC#CC(=O)OCC` here?
Answer: 3 of 3

Question: For `NCCC(c1ccccc1)c1ccccc1`, which survivor count (dose: 150.0 mg/kg/injection, schedule: Q01DX001 (ip), vehicle: carboxymethylcellulose (CMC)) is on record?
Answer: 1 of 6

Question: What about the survivor count (dose: 300.0 mg/kg/injection, schedule: Q01DX001 (ip), vehicle: carboxymethylcellulose (CMC)) of the same molecule?
Answer: 0 of 6

Question: Which results are given for `O=C1O[C@@H]2[C@@H](I)[C@@H]3C[C@@H]2[C@@H]1C3`?
Answer: survivor count [4]: 1 of 4; survivor count [5]: 1 of 4; survivor count [6]: 1 of 4

Question: How did the survivor count (dose: 50.0 mg/kg/injection, schedule: Q01DX009 (ip), vehicle: Klucel (hydroxypropylcellulose) (HPC)) turn out when `CN(C)c1ccc(/C=C/c2cnccn2)cc1` was run?
Answer: 6 of 6

Question: What about the survivor count (dose: 100.0 mg/kg/injection, schedule: Q01DX009 (ip), vehicle: Klucel (hydroxypropylcellulose) (HPC)) of the same molecule?
Answer: 6 of 6

Question: And the survivor count [3]?
Answer: 2 of 6

Question: What about the survivor count (dose: 400.0 mg/kg/injection, schedule: Q04DX003 (ip), vehicle: Klucel (hydroxypropylcellulose) (HPC)) of the same molecule?
Answer: 6 of 6
